Reference: PubChem BioAssay AID504444 (National Center for Advancing Translational Sciences (NCATS), 2011)
Screen size: about 360,000 compounds; about 7,500 (2.1%) were called active. The inconclusive results got no clear call from the source; some entries with a clear call stand among them for comparison. Calls follow the shape of the dose curve; as a rule, active = well fitted inhibition curve with a large enough effect; inconclusive = small, poorly fitted or top-dose-only effect, or effect the other way; inactive = flat fitted curve, though single readings scatter. Potencies of inconclusive entries are doubtful fits and often do not repeat.

assay: Nrf2 qHTS screen for inhibitors; details: A549 ARE-Fluc reporter, luciferase luminescence, 18-24 h; series mostly up to 46 µM; also: nearly all actives have a fitted effect of over 60% in size
Procedure, shortened: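 Quantitative HTS in A549 cells stably bearing an antioxidant response element-firefly luciferase construct. Inhibition of Nrf2-driven transcription was scored by luminescence after 18-24 h of compound exposure at 37 °C.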
Potency is read from the fitted curve at half-maximal effect.

| SMILES | Potency |
| --- | --- |
| CC1CCc2c(cc(-c3ccccc3)n2-c2ccc(C(=O)NC(C)C)cc2)C1 (stereo not drawn) | inconclusive: 29.1 µM [falling, single point] |
| NC(=S)NN=C(Cc1ccccc1)Cc1ccccc1 | inconclusive: 29.1 µM [falling, single point] |
| CN(C1CCCCC1)S(=O)(=O)c1ccc(-c2ccccn2)s1 | inconclusive: 11.6 µM [falling, partial curve] |
| COc1ccc(C(=O)Nc2ccc(C(F)(F)F)n(C)c2=O)cc1 | inconclusive: 4.11 µM [activator, full curve] |
| O=C(CSc1ccc(-c2cccnc2)nn1)Nc1ccc(F)c(F)c1 | inconclusive: 23.1 µM [falling, single point] |
| CC[C@]12c3[nH]c4ccc(Cl)cc4c3CCN1C(=O)[C@@H](CC(=O)NCc1cccc(C(F)(F)F)c1)C[C@@H]2C(=O)N1CCN(C(=O)c2ccco2)CC1 | inconclusive: 29.1 µM [falling, single point] |
| Cc1cc(Cl)cc2sc(NC(=O)c3ccco3)nc12 | inconclusive: 2.06 µM [activator, full curve] |
| CCC(CC)C(=O)N(CCc1ccc(OC)cc1)Cc1nc2ccccc2c(=O)[nH]1 | inconclusive: 18.4 µM [falling, single point] |
| O=C(C[C@@H]1C/C=C\CCC(=O)O[C@H](c2ccccc2)CNC1=O)N[C@H](CO)Cc1ccccc1 | inactive |
| COc1ccc([C@@H]2CC=C(C(=O)O)[C@H](c3ccc(Cl)cc3)N2S(=O)(=O)c2ccc(Cl)cc2)cc1 | inconclusive: 18.4 µM [falling, partial curve] |
| CC(C)C(NC(=O)c1ccc(F)cc1)C(=O)N1CCN(C(=O)c2ccco2)CC1 (stereo not drawn) | inactive |
| COc1ccccc1CNC(=O)c1cc2c(=O)oc3ccc(C)cc3c2s1 | inactive |
| N#Cc1ccc(-c2csc(NNC(=O)c3ccccc3)n2)cc1 | active: 23.1 µM |
| Cc1onc(-c2ccc3c(c2)OCO3)c1-c1ccc2[nH]ccc2c1 | active: 14.6 µM |
| CC1(COS(N)(=O)=O)CCCCC1 | inactive |
| CCC(=O)Nc1ccc(NC(=O)C23CC4CC(CC(C4)C2)C3)cn1 | inconclusive: 20.6 µM [activator, single point] |
| Cc1cc(NC(=O)c2ccccc2)n(-c2nc3ccccc3[nH]2)n1 | inconclusive: 20.6 µM [falling, partial curve] |
| CCn1cc(C(=O)N2CCN(c3ccccn3)CC2)c(=O)c2cc(S(=O)(=O)N(C)C3CCCCC3)ccc21 | inconclusive: 9.2 µM [falling, partial curve, poor fit] |

Fetched by structure from the list above:

| SMILES | Potency |
| --- | --- |
| CCC(CC)C(=O)N(CCc1ccc(OC)cc1)Cc1nc2ccccc2c(=O)[nH]1 | inconclusive: 18.4 µM [falling, single point] |
| CCC(=O)Nc1ccc(NC(=O)C23CC4CC(CC(C4)C2)C3)cn1 | inconclusive: 20.6 µM [activator, single point] |
